Measured values: PubChem BioAssay AID1259415 (National Center for Advancing Translational Sciences (NCATS), 2018)
Several values for one entry are separate records, joined by “and”; a condition that tells them apart may be missing. Identical values can stand only once. Out of some 410,000 compounds screened, about 18,000 (4.4%) were called active. Inconclusive means that the source gave no clear call. Such entries were picked first, then a sample of the others. Rule as the data show it: active = activity change below about -60%; inconclusive = no clear call, values can overlap the other calls; inactive = above about -39%.

experiment: qHTS Assay for inhibitors of the human cytomegalovirus (HCMV); conditions: HFF cells, HCMV-luciferase reporter, 72 h; at 57.5 µM; active compounds read low
In short: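 Cell-based, HFFs, 1000 cells/well, 16 h 37C; cpds in DMSO + HCMV-luc, MOI 1 PFU/cell; 72 h 37C; OneGlo luminescence after 5 min RT; norm. to buffer vs Salinomycin 10uM.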
% is scaled to controls: 0 for no effect and ±100 for the full control effect.

| Compound | activity change, negative = inhibition |
| --- | --- |
| O=C(NCCc1ccc(Cl)cc1)c1cc2ccccn2n1 | inactive: -11% |
| O=C(COc1ccc(Cl)cc1Br)NC(=O)NCc1ccccc1 | inactive: 25% |
| C=C(C)C1CC=C(C)/C(=N/NC(=O)c2cccs2)C1 (centres undefined) | inconclusive: -43.1% |
| COc1ccc(NC(=O)Cn2c(=O)oc3cc(Cl)ccc32)c(OC)c1 | inactive: 11.5% and inactive: 32.4% |
| COc1ccc(CCNC(=O)c2cc3c(=O)n4ccccc4nc3n(CC3CCCO3)c2=N)cc1OC (centres undefined) | inactive: 17.3% |
| CC(=O)Nc1ccc(Sc2ccccc2C(=O)Nc2ccc(F)cc2)cn1 | inconclusive: -41.9% |
| CCOc1ccc(C(=O)NC(=S)Nc2ccc(N3CCOCC3)c(Cl)c2)cc1[N+](=O)[O-] | inconclusive: -43.7% |
| C=C1C(=O)C=C[C@]2(C)C[C@@H]3OC(=O)[C@](C)(O)[C@H]3C[C@@H]12 | active: -98% |
| O=C(NCCCn1ccnc1)/C(=C/c1ccco1)NC(=O)c1ccco1 | inconclusive: -42.5% |
| O=[N+]([O-])c1cnc2ccccn12 | inconclusive: -45% |
| Cc1oc2ccc(OC(=O)COc3c(F)c(F)c(F)c(F)c3F)cc2c1C(=O)OC(C)C | inconclusive: -43.4% |
| Cc1ccc(NC(=O)c2cc(S(=O)(=O)NC3CCCCCC3)ccc2F)cc1F | inconclusive: -49.5% |
| N#Cc1cccc(C(Br)S(=O)(=O)c2ccccc2)c1 (centres undefined) | active: -90.7% |
| CN(C)CCCNC(=O)c1ccc(=O)[nH]n1 | inconclusive: -59.4% |
| O=C(NC1CCN(Cc2ccccc2)CC1)C1CCCN(S(=O)(=O)c2cccc3nonc23)C1 (centres undefined) | inconclusive: -49% |
| Cc1onc(-c2ccccc2Cl)c1-c1nc(-c2ccncc2)no1 | inconclusive: -48.1% |
| COc1ccc(NC(=S)NC(=O)/C=C/c2cccs2)cc1 | inconclusive: -47% |
| Cc1cc(C(=O)NCc2ccc(S(N)(=O)=O)cc2)ccc1[N+](=O)[O-] | inconclusive: -49.1% |
| Cc1ccc(CN2C(=O)C(O)(CC(=O)c3ccc(C)cc3)c3ccccc32)cc1 (centres undefined) | inconclusive: -55.7% |
| COc1cc(S(=O)(=O)N2CC(=O)Nc3ccccc32)ccc1NC(C)=O | inconclusive: -45.6% |
| Cc1cccn2c(=O)c(/C=C(\C#N)C(=O)NCc3ccco3)c(N3CCCCC3)nc12 | inconclusive: -51.5% |
| O=C(CCc1c[nH]c2ccccc12)NCCc1ccc(O)cc1 | inconclusive: -49.2% |
| CC(=O)c1nn(-c2ccc(OC(F)(F)F)cc2)nc1Nc1ccc(Cl)cc1 | inconclusive: -44.1% |
| COc1ccc(N(CC(=O)Nc2nccs2)S(=O)(=O)c2c(C)[nH]c(=O)[nH]c2=O)cc1 | inconclusive: -40.4% |
